Laboratory results reported in paper PMC6706699 (Developmental Cell, 2019).
Results are given in words; binding and its absence hold for the method and conditions named. For some assays here: Binding seen in cells or lysates may run through a third protein. Some entries that bind do so weakly or less than the wild type. For some assays here: Where a sequence is shown, tags or fusion partners need not be part of it.

Amino acid sequences for entries named in this document (tags omitted).
UniProt Q9Y5X1: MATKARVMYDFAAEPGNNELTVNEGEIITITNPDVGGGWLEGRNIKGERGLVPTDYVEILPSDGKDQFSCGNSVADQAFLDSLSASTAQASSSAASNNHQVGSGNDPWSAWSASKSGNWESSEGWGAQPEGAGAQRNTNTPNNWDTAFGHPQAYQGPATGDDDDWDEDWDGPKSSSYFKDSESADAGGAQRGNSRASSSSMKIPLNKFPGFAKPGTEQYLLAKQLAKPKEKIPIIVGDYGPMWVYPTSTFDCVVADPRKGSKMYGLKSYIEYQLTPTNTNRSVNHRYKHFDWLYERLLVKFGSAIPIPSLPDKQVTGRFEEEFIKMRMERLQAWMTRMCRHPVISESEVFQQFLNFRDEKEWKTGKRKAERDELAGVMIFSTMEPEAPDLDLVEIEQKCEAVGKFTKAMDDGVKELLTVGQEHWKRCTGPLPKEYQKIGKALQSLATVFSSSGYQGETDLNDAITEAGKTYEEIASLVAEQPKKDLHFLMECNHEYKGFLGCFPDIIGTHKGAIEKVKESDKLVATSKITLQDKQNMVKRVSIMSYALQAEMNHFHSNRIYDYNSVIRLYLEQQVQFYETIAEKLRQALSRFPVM

T1: mRuby2-Flag-GGGS-NECAP1, wild type (human) (UniProt Q8NC96)
T1 sequence: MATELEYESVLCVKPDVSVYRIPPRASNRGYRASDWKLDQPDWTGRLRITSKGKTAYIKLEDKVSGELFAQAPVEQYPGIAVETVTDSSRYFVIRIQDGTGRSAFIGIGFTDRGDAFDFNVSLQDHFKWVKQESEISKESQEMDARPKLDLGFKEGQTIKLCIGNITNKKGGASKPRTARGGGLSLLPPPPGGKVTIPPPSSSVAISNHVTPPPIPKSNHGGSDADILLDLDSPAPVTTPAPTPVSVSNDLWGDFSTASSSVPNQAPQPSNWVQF

T2: NECAP1 PHear domain (NECAP 1-133), wild type (UniProt Q8NC96)
T2 sequence: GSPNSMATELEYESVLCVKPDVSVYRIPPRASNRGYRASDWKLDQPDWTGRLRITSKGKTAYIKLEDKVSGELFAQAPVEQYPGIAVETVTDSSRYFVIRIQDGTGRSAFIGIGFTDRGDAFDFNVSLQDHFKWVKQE


Key:
[1] = biological target: T1, mRuby2-Flag-GGGS-NECAP1, wild type (human); test: co-IP; immunoprecipitation of NECAP1-mRuby2 from cells; details not shown
[2] = biological target: T2, NECAP1 PHear domain (NECAP 1-133), wild type; test: ITC; Nano ITC, 12°C, 75 mM HEPES pH 7.4, 0.25 mM TCEP; PHear domains in the cell, peptides at 1-5 mM titrated in; both purified

binding [1]	binding [2]	Molecule
binds		SNX9, endogenous in human non-neuronal cells (from UniProt Q9Y5X1 1-595)
	binds weakly	FLDSL [SNX9 FxDxΦ peptide FLDSL]
